From PubChem BioAssay AID685 (PCMD, 2007)
Some of the results follow.

Assay: yeast growth toxicity, wild-type and mutant, primary screen, cytotoxicity control for eIF2B function restoration project, wild-type and eIF2Bepsilon R284H mutant, A595 (AID 685);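 note: 0% = untreated cell controls and 100% = YPD media blanks without cells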
Settings: S. cerevisiae eIF2Bepsilon-R284H mutant growth, A595 turbidity, 16 h; stronger effect = higher value; screened at 25 µM (by protocol)
Summary of the method: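 Test system: Wild-type and eIF2Bepsilon-R284H mutant S. cerevisiae, screened separately | Dosing: Single 25 µM compound dose in 0.2% DMSO | Schedule: 16 h compound exposure during growth at 30 °C | Detection: A595 turbidity | Evaluation: Growth inhibition (%) versus cell controls and blanks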

Compound	growth inhibition [%]
N#CC1(Nc2ccccc2)CCN(CCc2ccccc2)CC1	-14.8
CCC(CO)(C(=O)OC1CN2CCC1CC2)c1ccccc1 (centres undefined)	15.2
c1ccc(CN2CCC(Nc3ccccc3)CC2)cc1	6.06
N/C(=N\O)c1c(N)no[n+]1[O-]	-7.41
